Measured data: PubChem BioAssay AID720505 (Drosophila RNAi Screening Center, 2013)

Aim: 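Knock-downs that reduce calcium influx once internal stores are emptied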 (primary screen)
Cell system: Drosophila S2R+ cells
Reagents: long dsRNA against Drosophila genes
Treatment: thapsigargin (2 µM) in calcium-free buffer to empty internal stores, then 2 mM calcium added back
Measurement: 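Stores emptied by 2 µM thapsigargin without calcium, then 2 mM calcium re-added; fluo-4 fluorescence followed by FLIPR in 384-well plates, per-well averaged endpoint, raw; two screen passes, some wells retested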
Reading the numbers: calcium signal and retest calcium signal: higher = more calcium entry after store depletion
Active means: 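About 1500 genes called as lowering calcium entry, by varying amounts, judged against per-plate control wells with STIM1 as positive and Rho1 as negative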
Meaning of the calls: active = called as lowering calcium entry; inactive = not called
In all, the deposit lists about 20,000 reagents; shown is a random part of those with a known target gene and a result. Of all reagents, about 2,100 (10%) are marked active. 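Raw plate signals without normalisation; calls rest on control-based scores that were not deposited; replicate 2 separates called from uncalled poorly.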 A plus sign joins genes that one reagent is predicted to hit. The record does not give: the amount of reagent, the time to read-out.

| gene knocked down | DRSC id | calcium signal, replicate 1 | calcium signal, replicate 2 | retest calcium signal, replicate 1 | retest calcium signal, replicate 2 | call |
| --- | --- | --- | --- | --- | --- | --- |
| Cchl (Cytochrome c heme lyase) | DRSC15949 | 105 | 206 | – | – | inactive |
| Prat2 (Phosphoribosylamidotransferase 2) | DRSC09692 | 157 | 119 | – | – | inactive |
| Atf6 | DRSC04743 | 98.7 | 128 | 91.2 | 76.5 | inactive |
| Atf6 | DRSC04889 | 104 | 113 | – | – | active |
| Pdf (Pigment-dispersing factor) | DRSC16786 | 99.8 | 154 | – | – | inactive |
| CG7333 | DRSC16229 | 234 | 170 | – | – | inactive |
| yip3 (yippee interacting protein 3) | DRSC04724 | 105 | 152 | – | – | inactive |
| CG8677 | DRSC03107 | 124 | 93.6 | – | – | inactive |
| karr | DRSC20681 | 227 | 79.3 | – | – | inactive |
| CG2310 | DRSC15438 | 137 | 116 | – | – | inactive |
| Cp7Fb (Chorion protein b at 7F) | DRSC18034 | 228 | 109 | – | – | inactive |
| CG8492 | DRSC10984 | 94.4 | 80 | 107 | 152 | inactive |
| CG8492 | DRSC21804 | 177 | 90.5 | – | – | inactive |
| Tcs4 (Threonyl-carbamoyl synthesis 4) | DRSC19587 | 132 | 136 | – | – | inactive |
| Rrp5 (Ribosomal RNA Processing 5) | DRSC15862 | 254 | 225 | – | – | inactive |
| ATPsynbeta (ATP synthase, beta subunit) | DRSC17194 | 63.9 | 93.2 | – | – | active |
| CG30291 | DRSC03842 | 97.6 | 9102 | – | – | inactive |
| Taf7 (TBP-associated factor 7) | DRSC15445 | 115 | 202 | – | – | inactive |
| CG6481 | DRSC19995 | 74 | 132 | – | – | inactive |
| Ku80 | DRSC02699 | 106 | 87.5 | – | – | inactive |
| Syx4 (Syntaxin 4) | DRSC18586 | 147 | 184 | – | – | inactive |
| inaF-B + inaF-D + inaF-C + 1 more | DRSC20342 | 117 | 103 | – | – | inactive |
| CG8851 | DRSC00718 | 126 | 84.4 | – | – | inactive |
| Adk1 (Adenosine kinase 1) | DRSC15514 | 105 | 74.6 | – | – | inactive |
| alphaKap4 (alpha Karyopherin-4) | DRSC09823 | 72.5 | 70.1 | – | – | inactive |
| Dref (DNA replication-related element factor) | DRSC03319 | 117 | 110 | – | – | inactive |
| CG2336 | DRSC12581 | 171 | 166 | – | – | inactive |
| Wnt6 (Wnt oncogene analog 6) | DRSC02795 | 166 | 84 | – | – | inactive |
| tyf (twenty-four) | DRSC18382 | 178 | 84.8 | – | – | inactive |
| CG3649 | DRSC04400 | 124 | 228 | – | – | inactive |
| CG7329 | DRSC03046 | 188 | 159 | – | – | inactive |
| CG8036 | DRSC16366 | 156 | 182 | – | – | inactive |
| CG32971 | DRSC01372 | 148 | 82.1 | – | – | inactive |
| puc (puckered) | DRSC17034 | 99.1 | 189 | – | – | inactive |
